For at least one compound, name, drawing or mass did not settle the structure.
Tested on: two key underarm bacteria strains
Test: Raw material microbial inhibition, verbal summary for both strains
Assay type: cell-based, C. mucofaciens and S. epidermidis
Conditions: verbal summary of Table 2, both strains
From the text: The data in Table 1 above was generated with the following test method.
It is understood that when not specifically noted in this procedure: • a) All materials, reagents and equipment required for this procedure are of appropriate design and condition of cleanliness and/or sterility as determined by their intended use. • b) The operator has been trained in aseptic technique and has been qualified to perform the procedure and accurately interpret the results. • c) All media required for this procedure was manufactured by a reputable commercial source eg. […] Procedure: (all Procedures Performed in Anaerobic Chamber Except where Noted) 1. […] 2. […] Microbial Strains • Staphylococcus epidermidis (clinical isolate) • Corynebacterium mucofaciens (clinical isolate) 4. Test Procedure Inoculum Preparation • Prior to testing streak organisms for isolation on BHI with 1% Tween 80 plates, wrap with parafilm and place in 37° C. incubator. When isolated colonies appear remove one representative colony from each plate and place each in 5 ml of BHI with 1% Tween 80 media. Incubate at 37° C. with shaking overnight. Inoculate 20 ml BHI with 1% Tween 80 (per 96 deep well plate to be tested) with 20 ul of the overnight culture (1-1000 dilution). […]
In row A of a 96 deep well plate pipette 180 ul of sterile BHI with 1% Tween 80 as a negative growth control. […] The next day read the O.D. 600 on a plate reader. […]

N=C(N)c1ccc(OCCCCCCOc2ccc(C(=N)N)cc2)cc1 [Hexamidine]
performance against the bacteria as raw materials: perform particularly well

Source: patent publication US12036301B2, “Deodorant and antiperspirant compositions” (The Procter & Gamble Company, priority 2017, dated 2024)
